According to article PMC2265411:
No constants are given. Whether binding was seen depends on the method and setting. For some assays here: In cells and extracts the contact can be indirect. Some entries that bind do so weakly or less than the wild type. For some assays here: Where a sequence is shown, tags or fusion partners need not be part of it.

The chains behind the UniProt entries cited, without tags or fusion partners.
UniProt Q15836: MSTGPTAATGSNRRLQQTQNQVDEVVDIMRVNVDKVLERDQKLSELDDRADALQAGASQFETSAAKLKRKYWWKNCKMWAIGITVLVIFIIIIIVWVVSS
UniProt P51809: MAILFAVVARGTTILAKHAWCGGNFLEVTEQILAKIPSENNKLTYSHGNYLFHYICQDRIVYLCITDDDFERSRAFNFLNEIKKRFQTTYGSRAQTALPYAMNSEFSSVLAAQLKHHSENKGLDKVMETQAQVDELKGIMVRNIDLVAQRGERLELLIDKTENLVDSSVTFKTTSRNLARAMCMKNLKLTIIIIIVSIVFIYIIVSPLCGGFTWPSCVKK
UniProt P0CI27: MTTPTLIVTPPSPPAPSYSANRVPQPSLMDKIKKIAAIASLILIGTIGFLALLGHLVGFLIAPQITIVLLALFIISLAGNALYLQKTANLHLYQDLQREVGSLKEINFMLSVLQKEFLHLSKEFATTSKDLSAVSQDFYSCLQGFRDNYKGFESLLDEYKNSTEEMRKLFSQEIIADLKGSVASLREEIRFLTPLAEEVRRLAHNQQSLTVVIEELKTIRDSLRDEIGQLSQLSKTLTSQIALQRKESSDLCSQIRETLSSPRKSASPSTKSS

Tests used:
[1] = target: GST-Vamp3 purified and reconstituted into liposomes (UniProt Q15836); assay: pull-down; purified GST-Vamp and purified IncA-His in two populations of liposomes, mixed 16 hrs at 4°C, dissolved in 2.5% n-dodecyl-maltoside, diluted in buffer A (100 mM KCl, 25 mM HEPES, 10% glycerol, 1% octyl-β-D-glucopyranoside), glutathione agarose; SDS-PAGE, Coomassie; both purified
[2] = target: T1, GST-Vamp8 purified and reconstituted into liposomes (UniProt Q9BV40); assay: as above
T1 sequence: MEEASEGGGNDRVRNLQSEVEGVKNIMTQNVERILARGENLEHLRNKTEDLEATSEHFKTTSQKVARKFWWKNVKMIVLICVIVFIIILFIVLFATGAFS

[3] = target: GFP-Vamp3 (UniProt Q15836); assay: co-IP; HeLa cells co-transfected with the inclusion protein and a GFP-SNARE, lysed 24 h later in 50 mM Tris, 150 mM NaCl, 1% Triton X-100, 10 mM EDTA, pH 7.5; GFP-tagged proteins precipitated with anti-GFP monoclonal antibodies; blots with anti-IncA or anti-His
[4] = target: GFP-Vamp7 (UniProt P51809); assay: as above
[5] = target: T2, GFP-Vamp8 (UniProt Q9BV40); assay: as above
T2 sequence: T1 sequence

Full-length IncA-His purified from E. coli and reconstituted into liposomes (from UniProt P0CI27 1-273)
binding [1]: binds | binding [2]: binds

C. trachomatis IncA with a carboxyterminal His tag, expressed in HeLa cells (from UniProt P0CI27 1-273)
binding [3]: binds | binding [4]: binds | binding [5]: binds
